Experiment [1] deals with T1, N-acetyltransferase 10 (NAT10), endogenous (human (endogenous in SCC-15)) (UniProt Q9H0A0).
T1 sequence: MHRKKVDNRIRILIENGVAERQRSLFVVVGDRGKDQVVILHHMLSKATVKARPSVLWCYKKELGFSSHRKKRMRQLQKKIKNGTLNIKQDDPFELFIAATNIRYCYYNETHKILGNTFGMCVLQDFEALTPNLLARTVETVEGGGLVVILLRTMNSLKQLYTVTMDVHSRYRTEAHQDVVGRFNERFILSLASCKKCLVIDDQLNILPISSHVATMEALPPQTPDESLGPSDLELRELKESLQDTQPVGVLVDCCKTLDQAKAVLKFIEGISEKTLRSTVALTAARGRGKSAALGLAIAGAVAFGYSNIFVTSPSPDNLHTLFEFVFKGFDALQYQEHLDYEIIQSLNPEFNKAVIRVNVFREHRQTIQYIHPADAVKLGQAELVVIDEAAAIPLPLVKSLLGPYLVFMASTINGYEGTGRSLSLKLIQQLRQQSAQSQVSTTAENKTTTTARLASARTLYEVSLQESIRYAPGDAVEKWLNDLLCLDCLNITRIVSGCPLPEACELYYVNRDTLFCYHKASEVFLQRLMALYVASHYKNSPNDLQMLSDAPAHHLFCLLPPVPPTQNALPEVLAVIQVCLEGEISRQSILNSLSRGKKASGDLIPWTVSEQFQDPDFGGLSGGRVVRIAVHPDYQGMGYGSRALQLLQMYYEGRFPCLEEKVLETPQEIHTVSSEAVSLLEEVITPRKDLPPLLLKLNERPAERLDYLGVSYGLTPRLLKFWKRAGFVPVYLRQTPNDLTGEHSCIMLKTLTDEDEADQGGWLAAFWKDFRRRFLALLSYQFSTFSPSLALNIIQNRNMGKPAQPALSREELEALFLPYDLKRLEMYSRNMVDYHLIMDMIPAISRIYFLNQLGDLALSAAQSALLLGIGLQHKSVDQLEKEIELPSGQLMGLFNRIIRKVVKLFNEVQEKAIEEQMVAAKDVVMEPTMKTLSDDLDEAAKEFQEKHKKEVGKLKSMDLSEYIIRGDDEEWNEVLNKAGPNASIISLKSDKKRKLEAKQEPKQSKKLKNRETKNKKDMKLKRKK
The experiment can be described thus: affinity purification with mass spectrometry; co-IP of endogenous NAT10 from SCC-15 cells with anti-NAT10 antibody, gel slice digested, LC-MS/MS; proteins found in the IgG and NAT10 KD control groups subtracted.

Amino acid sequences for entries named in this document (tags omitted).
UniProt Q9HCJ5: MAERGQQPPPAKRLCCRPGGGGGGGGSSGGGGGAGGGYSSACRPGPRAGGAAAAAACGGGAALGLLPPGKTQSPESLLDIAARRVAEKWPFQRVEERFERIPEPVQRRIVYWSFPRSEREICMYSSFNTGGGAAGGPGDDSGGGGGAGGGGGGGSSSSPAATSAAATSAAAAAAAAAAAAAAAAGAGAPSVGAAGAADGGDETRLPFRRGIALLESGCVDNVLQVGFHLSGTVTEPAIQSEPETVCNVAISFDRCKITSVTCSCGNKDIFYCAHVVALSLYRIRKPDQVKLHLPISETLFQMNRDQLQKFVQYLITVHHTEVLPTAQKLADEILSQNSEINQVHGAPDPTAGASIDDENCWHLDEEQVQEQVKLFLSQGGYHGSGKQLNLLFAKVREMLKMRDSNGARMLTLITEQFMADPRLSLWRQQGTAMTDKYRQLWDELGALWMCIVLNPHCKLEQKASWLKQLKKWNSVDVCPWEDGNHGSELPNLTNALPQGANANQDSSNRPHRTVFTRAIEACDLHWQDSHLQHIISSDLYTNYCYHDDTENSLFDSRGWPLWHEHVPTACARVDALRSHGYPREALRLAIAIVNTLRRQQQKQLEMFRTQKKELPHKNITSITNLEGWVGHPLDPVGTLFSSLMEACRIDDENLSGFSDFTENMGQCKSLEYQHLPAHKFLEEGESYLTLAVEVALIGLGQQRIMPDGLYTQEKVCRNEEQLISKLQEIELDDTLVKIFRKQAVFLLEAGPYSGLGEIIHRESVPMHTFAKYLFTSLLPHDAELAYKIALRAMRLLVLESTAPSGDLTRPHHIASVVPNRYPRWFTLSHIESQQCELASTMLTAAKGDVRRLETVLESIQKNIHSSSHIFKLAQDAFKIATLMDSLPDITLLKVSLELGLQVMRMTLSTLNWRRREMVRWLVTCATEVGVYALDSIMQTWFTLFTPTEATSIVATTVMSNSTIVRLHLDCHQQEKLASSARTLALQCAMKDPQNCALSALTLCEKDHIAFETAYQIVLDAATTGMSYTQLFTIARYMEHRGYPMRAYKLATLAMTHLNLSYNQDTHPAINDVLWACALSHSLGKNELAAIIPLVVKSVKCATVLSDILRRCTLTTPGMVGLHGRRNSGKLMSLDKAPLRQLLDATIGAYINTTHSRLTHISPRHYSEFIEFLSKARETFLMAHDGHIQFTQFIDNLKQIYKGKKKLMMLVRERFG

Experiment [2] has as its target T1, N-acetyltransferase 10 (NAT10), endogenous (human (endogenous in SCC-15)). The description is as above. The source holds these as a separate data set.

In PMC10800354 one finds binding data, which are given here for 2 molecules.

Read-outs that look alike come from different tables or passages of the source. These are yes or no findings as the source states them, for the method shown. Binding seen in cells or lysates may run through a third protein. A yes stands for co-enrichment or nearness to the bait. Other partners may have been found.

As to “zinc finger SWIM domain-containing protein 6 (ZSWIM6), endogenous (from UniProt Q9HCJ5 1-1215)”, in experiment [1], the binding result is “binds”.

B1: RNA-binding protein with serine-rich domain 1 (RNPS1), endogenous (protein, UniProt Q15287 1-305)
chain: MDLSGVKKKSLLGVKENNKKSSTRAPSPTKRKDRSDEKSKDRSKDKGATKESSEKDRGRDKTRKRRSASSGSSSTRSRSSSTSSSGSSTSTGSSSGSSSSSASSRSGSSSTSRSSSSSSSSGSPSPSRRRHDNRRRSRSKSKPPKRDEKERKRRSPSPKPTKVHIGRLTRNVTKDHIMEIFSTYGKIKMIDMPVERMHPHLSKGYAYVEFENPDEAEKALKHMDGGQIDGQEITATAVLAPWPRPPPRRFSPPRRMLPPPPMWRRSPPRMRRRSRSPRRRSPVRRRSRSPGRRRHRSRSSSNSSR
Regarding B1, the binding entry in experiment [2] was “binds”.
